Results taken from US6545128 (BURNHAM INSTITUTE, dated 2003).
These are yes or no findings as the source states them, for the method shown. In cells and extracts the contact can be indirect. Some entries that bind do so weakly or less than the wild type. Where a sequence is shown, tags or fusion partners need not be part of it.

Key:
[1] = molecular target: T1, GST-BI-2 fusion protein (human) (UniProt Q9NZS9); experiment: GST pull-down on glutathione SEPHAROSE, 35S-labeled in vitro translated protein, SDS-PAGE and autoradiography
T1 sequence: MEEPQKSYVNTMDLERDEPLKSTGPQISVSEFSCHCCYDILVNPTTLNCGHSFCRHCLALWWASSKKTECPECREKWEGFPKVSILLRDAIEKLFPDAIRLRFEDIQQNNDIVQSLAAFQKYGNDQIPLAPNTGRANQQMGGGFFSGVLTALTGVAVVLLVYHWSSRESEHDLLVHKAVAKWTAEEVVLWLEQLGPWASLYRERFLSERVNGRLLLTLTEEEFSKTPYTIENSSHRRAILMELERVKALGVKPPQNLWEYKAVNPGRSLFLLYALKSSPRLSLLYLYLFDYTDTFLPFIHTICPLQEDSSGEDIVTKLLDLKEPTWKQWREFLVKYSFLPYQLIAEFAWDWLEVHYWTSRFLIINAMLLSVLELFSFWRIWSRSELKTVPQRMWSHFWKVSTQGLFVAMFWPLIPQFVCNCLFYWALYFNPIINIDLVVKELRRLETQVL

[2] = molecular target: T1, GST-BI-2 fusion protein (human); experiment: GST pull-down (summary sentence of Example V)

- binding [1]: binds
- binding [2]: binds
B1: 35S-labeled in vitro translated HA-tagged BI-2 (protein, not shown: small tags and cut ends)
chain: MEEPQKSYVNTMDLERDEPLKSTGPQISVSEFSCHCCYDILVNPTTLNCGHSFCRHCLALWWASSKKTECPECREKWEGFPKVSILLRDAIEKLFPDAIRLRFEDIQQNNDIVQSLAAFQKYGNDQIPLAPNTGRANQQMGGGFFSGVLTALTGVAVVLLVYHWSSRESEHDLLVHKAVAKWTAEEVVLWLEQLGPWASLYRERFLSERVNGRLLLTLTEEEFSKTPYTIENSSHRRAILMELERVKALGVKPPQNLWEYKAVNPGRSLFLLYALKSSPRLSLLYLYLFDYTDTFLPFIHTICPLQEDSSGEDIVTKLLDLKEPTWKQWREFLVKYSFLPYQLIAEFAWDWLEVHYWTSRFLIINAMLLSVLELFSFWRIWSRSELKTVPQRMWSHFWKVSTQGLFVAMFWPLIPQFVCNCLFYWALYFNPIINIDLVVKELRRLETQVL
modifications: 35S-labeled methionine (in vitro translation)
